{"source": "patent US7745481B2", "about": "“Methods and compositions for the treatment and prevention of tumors, tumor-related disorders and cachexia” (Daiichi Sankyo Company, Limited, priority 1997, dated 2010)", "origin": "cited, not measured here", "system": "experimental colonic polyposis", "conditions": "literature (Oshima 1996; Reddy 1996); cited from earlier work", "note": "At least one structure is not confirmed: it was looked up by name or label, or the drawing left a doubt.", "data": [{"smiles": "Cc1ccc(-c2cc(C(F)(F)F)nn2-c2ccc(S(N)(=O)=O)cc2)cc1", "note": "[celecoxib]", "values": [{"measurement": "Inhibition of occurrence of experimental colonic polyposis (in words)", "value": "inhibit the occurrence of experimental colonic polyposis"}]}]}
